Reference: PubChem BioAssay AID1224830 (NIAID, 2016)
The whole screen tested about 18,000 reagents; this is a part drawn at random. Of all reagents, about 2,900 (16%) are marked active. 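Calls are made per well; low scores hint the gene aids the LPS response, high scores that it dampens it.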 Repeated entries: four replicate wells of each siRNA pool. Reagent sequences are not shown.

- Test: 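Host factors that control LPS-induced TNF expression in human macrophages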 (primary screen)
- Cells: human THP-1 monocytic leukaemia cells, TNF dual-luciferase reporter clone, PMA-differentiated to macrophage-like cells
- Reagent: siRNA pool against human genes, 50 nM
- Duration: LPS for 4 h, given about 3 days after siRNA transfection
- Challenge: bacterial LPS (TLR4 ligand), 10 ng/ml
- Read-out: 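Ratio of firefly to renilla light, scaled to the plate median and expressed as a robust z-score per replicate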
- Direction: TNF reporter robust z-score: higher = stronger TNF reporter response to LPS
- Call rule: 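a well is active when its z-score exceeds 2.8 or falls below -1.5; control wells carry no call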

ATOSB (GeneID 80256): TNF reporter robust z-score = -0.44; call = inactive
ATOSB (GeneID 80256): TNF reporter robust z-score = -0.54; call = inactive
ATOSB (GeneID 80256): TNF reporter robust z-score = -1.07; call = inactive
ATOSB (GeneID 80256): TNF reporter robust z-score = -0.14; call = inactive
ZBED2 (GeneID 79413): TNF reporter robust z-score = 0.29; call = inactive
ZBED2 (GeneID 79413): TNF reporter robust z-score = 0.39; call = inactive
ZBED2 (GeneID 79413): TNF reporter robust z-score = 0.25; call = inactive
ZBED2 (GeneID 79413): TNF reporter robust z-score = 0.32; call = inactive
PLIN2 (GeneID 123): TNF reporter robust z-score = 1.18; call = inactive
PLIN2 (GeneID 123): TNF reporter robust z-score = 0.17; call = inactive
PLIN2 (GeneID 123): TNF reporter robust z-score = 0.51; call = inactive
PLIN2 (GeneID 123): TNF reporter robust z-score = 0.71; call = inactive
SFXN5 (GeneID 94097): TNF reporter robust z-score = -0.58; call = inactive
SFXN5 (GeneID 94097): TNF reporter robust z-score = -0.32; call = inactive
SFXN5 (GeneID 94097): TNF reporter robust z-score = 1.93; call = inactive
SFXN5 (GeneID 94097): TNF reporter robust z-score = 0.16; call = inactive
CREB5 (GeneID 9586): TNF reporter robust z-score = -0.19; call = inactive
CREB5 (GeneID 9586): TNF reporter robust z-score = -1.01; call = inactive
CREB5 (GeneID 9586): TNF reporter robust z-score = -0.24; call = inactive
CREB5 (GeneID 9586): TNF reporter robust z-score = -0.96; call = inactive
SPAM1 (GeneID 6677): TNF reporter robust z-score = 1.74; call = inactive
SPAM1 (GeneID 6677): TNF reporter robust z-score = -0.41; call = inactive
SPAM1 (GeneID 6677): TNF reporter robust z-score = -0.73; call = inactive
SPAM1 (GeneID 6677): TNF reporter robust z-score = -0.67; call = inactive
MLNR (GeneID 2862): TNF reporter robust z-score = -1.04; call = inactive
MLNR (GeneID 2862): TNF reporter robust z-score = -0.43; call = inactive
MLNR (GeneID 2862): TNF reporter robust z-score = -0.03; call = inactive
MLNR (GeneID 2862): TNF reporter robust z-score = -0.88; call = inactive
TOB1 (GeneID 10140): TNF reporter robust z-score = -1.13; call = inactive
TOB1 (GeneID 10140): TNF reporter robust z-score = -0.78; call = inactive
TOB1 (GeneID 10140): TNF reporter robust z-score = 0.09; call = inactive
TOB1 (GeneID 10140): TNF reporter robust z-score = -0.37; call = inactive
NFX1 (GeneID 4799): TNF reporter robust z-score = 1.32; call = inactive
NFX1 (GeneID 4799): TNF reporter robust z-score = 1.23; call = inactive
NFX1 (GeneID 4799): TNF reporter robust z-score = 3.24; call = active
NFX1 (GeneID 4799): TNF reporter robust z-score = 1.68; call = inactive
LYZL1 (GeneID 84569): TNF reporter robust z-score = -1.98; call = active
LYZL1 (GeneID 84569): TNF reporter robust z-score = -1.7; call = active
LYZL1 (GeneID 84569): TNF reporter robust z-score = -1.18; call = inactive
LYZL1 (GeneID 84569): TNF reporter robust z-score = -0.52; call = inactive
ANAPC16 (GeneID 119504): TNF reporter robust z-score = 2.86; call = active
ANAPC16 (GeneID 119504): TNF reporter robust z-score = 2.73; call = inactive
ANAPC16 (GeneID 119504): TNF reporter robust z-score = -0.42; call = inactive
ANAPC16 (GeneID 119504): TNF reporter robust z-score = 1.68; call = inactive
LRRIQ1 (GeneID 84125): TNF reporter robust z-score = 0; call = inactive
LRRIQ1 (GeneID 84125): TNF reporter robust z-score = 0.24; call = inactive
LRRIQ1 (GeneID 84125): TNF reporter robust z-score = -1.26; call = inactive
LRRIQ1 (GeneID 84125): TNF reporter robust z-score = -1.4; call = inactive
